PubChem BioAssay AID504764 | Drosophila RNAi Screening Center, 2011
In all, the deposit lists about 22,000 reagents; below is an unselected part of those that have a named target and a result. Over the whole deposit, 403 (1.9%) were called active. 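Unnormalised raw counts per well; ratio z-scores behind the hit calls and whether each hit raises or lowers signal are not deposited.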 The record does not give: the amount of reagent.

- Screen: 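Genes whose knock-down alters Notch-dependent transcription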 (primary screen)
- Cells: Drosophila Kc167 cells
- Reagent: long dsRNA against Drosophila genes
- Timing: about 5 days (4 days dsRNA, then 24 h after transfection)
- Conditions: transfection of constitutively active membrane-tethered Notch lacking the extracellular domain, read 24 h later
- Measurement: 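Firefly luciferase from an E(spl)m3 reporter with active Notch, plus control-promoter and uninduced reporter wells for normalisation; unnormalised counts, duplicate wells a and b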
- Reading the numbers: induced reporter light, run 1, well a and induced reporter light, run 1, well b: higher = more light from the Notch target reporter with active Notch; control promoter light, run 1, well a and control promoter light, run 1, well b: higher = more light from the viral control promoter (cell number, transfection, viability); uninduced reporter light, run 1, well a: higher = more light from the Notch target reporter without active Notch
- Active means: 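Hit if the duplicate-averaged log2 ratio of induced to control-promoter light gives a plate-wise z beyond ±2, or induced to uninduced beyond ±1.8; weak-control or discordant-duplicate wells dropped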
- Calls: active = modifier hit (raised or lowered Notch signal); inactive = not a hit

CG6293 [DRSC16011]
- induced reporter light, run 1, well a: 1.37e5
- induced reporter light, run 1, well b: 1.25e5
- control promoter light, run 1, well a: 89655
- control promoter light, run 1, well b: 82890
- uninduced reporter light, run 1, well a: 9470
- Call: inactive

Rbcn-3A [DRSC18314]
- induced reporter light, run 1, well a: 1.39e5
- induced reporter light, run 1, well b: 1.86e5
- control promoter light, run 1, well a: 2.88e5
- control promoter light, run 1, well b: 2.89e5
- uninduced reporter light, run 1, well a: 10460
- Call: inactive

CG8910 [DRSC07414]
- induced reporter light, run 1, well a: 87410
- induced reporter light, run 1, well b: 92630
- control promoter light, run 1, well a: 1.72e5
- control promoter light, run 1, well b: 1.75e5
- uninduced reporter light, run 1, well a: 8740
- Call: inactive

Or43a [DRSC07485]
- induced reporter light, run 1, well a: 1.46e5
- induced reporter light, run 1, well b: 1.41e5
- control promoter light, run 1, well a: 1.84e5
- control promoter light, run 1, well b: 1.86e5
- uninduced reporter light, run 1, well a: 12225
- Call: inactive

MstProx [DRSC12458]
- induced reporter light, run 1, well a: 1.65e5
- induced reporter light, run 1, well b: 1.31e5
- control promoter light, run 1, well a: 1.43e5
- control promoter light, run 1, well b: 1.39e5
- uninduced reporter light, run 1, well a: 10160
- Call: inactive

MstProx [DRSC12601]
- induced reporter light, run 1, well a: 79380
- induced reporter light, run 1, well b: 1.16e5
- control promoter light, run 1, well a: 99685
- control promoter light, run 1, well b: 83605
- uninduced reporter light, run 1, well a: 5420
- Call: inactive

CG33752 [DRSC05351]
- induced reporter light, run 1, well a: 2.45e5
- induced reporter light, run 1, well b: 2.12e5
- control promoter light, run 1, well a: 2.37e5
- control promoter light, run 1, well b: 3.90e5
- uninduced reporter light, run 1, well a: 17270
- Call: inactive

CG10317 [DRSC14229]
- induced reporter light, run 1, well a: 2.32e5
- induced reporter light, run 1, well b: 2.23e5
- control promoter light, run 1, well a: 2.05e5
- control promoter light, run 1, well b: 2.11e5
- uninduced reporter light, run 1, well a: 20530
- Call: inactive

IleRS [DRSC11667]
- induced reporter light, run 1, well a: 35125
- induced reporter light, run 1, well b: 31890
- control promoter light, run 1, well a: 48335
- control promoter light, run 1, well b: 43835
- uninduced reporter light, run 1, well a: 2925
- Call: inactive

sqd [DRSC15160]
- induced reporter light, run 1, well a: 2.17e5
- induced reporter light, run 1, well b: 2.45e5
- control promoter light, run 1, well a: 2.30e5
- control promoter light, run 1, well b: 2.53e5
- uninduced reporter light, run 1, well a: 17665
- Call: inactive

sqd [DRSC17066]
- induced reporter light, run 1, well a: 1.80e5
- induced reporter light, run 1, well b: 1.98e5
- control promoter light, run 1, well a: 3.13e5
- control promoter light, run 1, well b: 2.78e5
- uninduced reporter light, run 1, well a: 13235
- Call: inactive

ScsbetaA [DRSC14446]
- induced reporter light, run 1, well a: 93845
- induced reporter light, run 1, well b: 1.26e5
- control promoter light, run 1, well a: 73840
- control promoter light, run 1, well b: 58725
- uninduced reporter light, run 1, well a: 7115
- Call: inactive

Tina-1 [DRSC04317]
- induced reporter light, run 1, well a: 1.85e5
- induced reporter light, run 1, well b: 2.10e5
- control promoter light, run 1, well a: 1.86e5
- control promoter light, run 1, well b: 2.12e5
- uninduced reporter light, run 1, well a: 15978
- Call: inactive

Pen [DRSC03396]
- induced reporter light, run 1, well a: 1.35e5
- induced reporter light, run 1, well b: 1.76e5
- control promoter light, run 1, well a: 1.07e5
- control promoter light, run 1, well b: 1.19e5
- uninduced reporter light, run 1, well a: 19090
- Call: active

rho-6 [DRSC02588]
- induced reporter light, run 1, well a: 1.44e5
- induced reporter light, run 1, well b: 1.56e5
- control promoter light, run 1, well a: 1.29e5
- control promoter light, run 1, well b: 1.22e5
- uninduced reporter light, run 1, well a: 12370
- Call: inactive

Dbct [DRSC19951]
- induced reporter light, run 1, well a: 2.08e5
- induced reporter light, run 1, well b: 1.38e5
- control promoter light, run 1, well a: 2.05e5
- control promoter light, run 1, well b: 1.86e5
- uninduced reporter light, run 1, well a: 10795
- Call: inactive

TwdlS [DRSC14737]
- induced reporter light, run 1, well a: 1.35e5
- induced reporter light, run 1, well b: 98935
- control promoter light, run 1, well a: 1.56e5
- control promoter light, run 1, well b: 1.53e5
- uninduced reporter light, run 1, well a: 12025
- Call: inactive

SAK [DRSC11879]
- induced reporter light, run 1, well a: 55045
- induced reporter light, run 1, well b: 44485
- control promoter light, run 1, well a: 56045
- control promoter light, run 1, well b: 46925
- uninduced reporter light, run 1, well a: 3000
- Call: inactive

Called active (from the list above):
Pen [DRSC03396]
- induced reporter light, run 1, well a: 1.35e5
- induced reporter light, run 1, well b: 1.76e5
- control promoter light, run 1, well a: 1.07e5
- control promoter light, run 1, well b: 1.19e5
- uninduced reporter light, run 1, well a: 19090
- Call: active
